{"source": "patent US9624288B2", "about": "“Engineered receptors and their use” (University of Pittsburgh—Of the Commonwealth System of …, priority 2012, dated 2017)", "molecules": {"B1": {"name": "EG channel: ELIC extracellular domain fused to human GlyR α1 transmembrane domain; amine-gated Cl- channel, delivered as expression plasmid in vivo (protein)", "chain": "MGLRALMLWLLAAAGLVRESLQAPADNAADARPVDVSVSIFINKIYGVNTLEQTYKVDGYIVAQWTGKPRKTPGDKPLIVENTQIERWINNGLWVPALEFINVVGSPDTGNKRLMLFPDGRVIYNARFLGSFSNDMDFRLFPFDRQQFVLELEPFSYNNQQLRFSDIQVYTENIDNEEIDEWWIRGKASTHISDIRYDHLSSVQPNQNEFSRITVRIDAVRQMGYYLIQMYIPSLLIVILSWISFWINMDAAPARVGLGITTVLTMTTQSSGSRASLPKVSYVKAIDIWMAVCLLFVFSALLEYAAVNFVSRSQPARAAKIDKISRIGFPMAFLIFNMFYWIRGITL", "modifications": "Engineered Chloride Channel Receptor", "notes": "ELIC extracellular domain fused to human GlyR α1 transmembrane domain; amine-gated Cl- channel, delivered as expression plasmid in vivo"}}, "test": "In vivo expression of EG assessed by co-expressed eGFP fluorescence", "conditions": "after vector injection into the rat hind paw; listed as EG", "note": "Entries after “also recorded” stand apart in the source; their conditions may differ."}
{"molecule": "B1", "values": [{"measurement": "EG expression (eGFP fluorescence)", "result": "lasted for over six weeks; also recorded: robust"}]}
